Measured data: PubChem BioAssay AID1259405 (NCATS, 2018)
The whole screen tested about 50,000 reagents; below is an unselected part. About 4,000 of them (8%) count as active. 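Mouse siRNA library applied to hamster cells; one well for each siRNA.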 Reagents against one gene are numbered here.

- Screen: 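Knock-downs that lift recombinant protein yield in hamster ovary cells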 (primary screen)
- Cell system: Chinese hamster CHO-K1 ovary cells with stable secreted eGFP expression
- Reagent: single siRNA against mouse genes, 0.8 pmol siRNA per well (2 µl of 400 nM stock)
- Time to read-out: 3 days
- Detection: 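Per-well intracellular GFP measured by laser scanning cytometry, plus viability from ATP luminescence, each relative to plate median of non-targeting control wells, in %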
- Scale: GFP, % of control: higher = more GFP per well, higher productivity; viability (ATP), % of control: higher = more viable cells (more ATP)
- Hit rule: 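a knock-down is called active if GFP reaches 120% or more of non-targeting control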

gene knocked down | reagent no. | GFP, % of control | viability (ATP), % of control | Call
Shisal2b (shisa like 2B) | 1 | 107 | 69 | inactive
Shisal2b (shisa like 2B) | 2 | 107 | 48.8 | inactive
Shisal2b (shisa like 2B) | 3 | 62.6 | 68.3 | inactive
Raver1 (ribonucleoprotein, PTB-binding 1) | 1 | 115 | 101 | inactive
Raver1 (ribonucleoprotein, PTB-binding 1) | 2 | 73 | 91.4 | inactive
Raver1 (ribonucleoprotein, PTB-binding 1) | 3 | 74.9 | 55.3 | inactive
Kcnk7 (potassium channel, subfamily K, member 7) | 1 | 34.6 | 39.5 | inactive
Kcnk7 (potassium channel, subfamily K, member 7) | 2 | 74.7 | 58.2 | inactive
Kcnk7 (potassium channel, subfamily K, member 7) | 3 | 52.4 | 86.2 | inactive
Cdh20 (cadherin 20) | 1 | 88 | 76 | inactive
Cdh20 (cadherin 20) | 2 | 73.2 | 49.8 | inactive
Cdh20 (cadherin 20) | 3 | 82.1 | 70.1 | inactive
Icam2 (intercellular adhesion molecule 2) | 1 | 69.6 | 89.7 | inactive
Icam2 (intercellular adhesion molecule 2) | 2 | 98.1 | 73.9 | inactive
Fabp2 (fatty acid binding protein 2, intestinal) | 1 | 129 | 108 | active
Fabp2 (fatty acid binding protein 2, intestinal) | 2 | 101 | 77.7 | inactive
Fabp2 (fatty acid binding protein 2, intestinal) | 3 | 81.9 | 69.9 | inactive
Msi1 (musashi RNA-binding protein 1) | 1 | 43.3 | 64.9 | inactive
Msi1 (musashi RNA-binding protein 1) | 2 | 83.2 | 60.4 | inactive
Msi1 (musashi RNA-binding protein 1) | 3 | 69.8 | 75.1 | inactive
Itsn2 (intersectin 2) | 1 | 79.2 | 104 | inactive
Itsn2 (intersectin 2) | 2 | 75.5 | 55.3 | inactive
Itsn2 (intersectin 2) | 3 | 69.8 | 59.2 | inactive
4931406H21Rik (RIKEN cDNA 4931406H21 gene) | 1 | 16.5 | 29.3 | inactive
4931406H21Rik (RIKEN cDNA 4931406H21 gene) | 2 | 89.7 | 60.1 | inactive
4931406H21Rik (RIKEN cDNA 4931406H21 gene) | 3 | 114 | 63.7 | inactive
Hoxd4 (homeobox D4) | 1 | 50.4 | 57.8 | inactive
Hoxd4 (homeobox D4) | 2 | 75.1 | 73.4 | inactive
Hoxd4 (homeobox D4) | 3 | 82.4 | 82.1 | inactive
Abcg4 (ATP binding cassette subfamily G member 4) | 1 | 117 | 99.6 | inactive
Abcg4 (ATP binding cassette subfamily G member 4) | 2 | 50.5 | 69.6 | inactive
Abcg4 (ATP binding cassette subfamily G member 4) | 3 | 64.8 | 67.7 | inactive
Mkln1 (muskelin 1, intracellular mediator containing kelch motifs) | 1 | 46.5 | 39 | inactive
Mkln1 (muskelin 1, intracellular mediator containing kelch motifs) | 2 | 77 | 80.8 | inactive
Mkln1 (muskelin 1, intracellular mediator containing kelch motifs) | 3 | 57.7 | 48.3 | inactive
Hcar2 (hydroxycarboxylic acid receptor 2) | 1 | 38.1 | 70 | inactive
Hcar2 (hydroxycarboxylic acid receptor 2) | 2 | 81.1 | 80.2 | inactive
Hcar2 (hydroxycarboxylic acid receptor 2) | 3 | 60 | 57.6 | inactive
Ube2a (ubiquitin-conjugating enzyme E2A) | 1 | 84 | 80 | inactive
Ube2a (ubiquitin-conjugating enzyme E2A) | 2 | 68.8 | 103 | inactive
Ube2a (ubiquitin-conjugating enzyme E2A) | 3 | 91.2 | 109 | inactive
Cep95 (centrosomal protein 95) | 1 | 128 | 86.9 | active
Cep95 (centrosomal protein 95) | 2 | 57.4 | 51.9 | inactive
Cep95 (centrosomal protein 95) | 3 | 62.2 | 86.6 | inactive
Ctc1 (CTS telomere maintenance complex component 1) | 1 | 54.6 | 69.6 | inactive
Ctc1 (CTS telomere maintenance complex component 1) | 2 | 84.3 | 68.6 | inactive
Ctc1 (CTS telomere maintenance complex component 1) | 3 | 113 | 141 | inactive
Rhog (ras homolog family member G) | 1 | 153 | 59.5 | active
Rhog (ras homolog family member G) | 2 | 80.1 | 67.4 | inactive
Rhog (ras homolog family member G) | 3 | 76.8 | 54.8 | inactive
Pacs1 (phosphofurin acidic cluster sorting protein 1) | 1 | 58.3 | 41.3 | inactive
Pacs1 (phosphofurin acidic cluster sorting protein 1) | 2 | 35.2 | 46.2 | inactive
Pacs1 (phosphofurin acidic cluster sorting protein 1) | 3 | 124 | 91.7 | active
Cd1d2 (CD1d2 antigen) | 1 | 44.7 | 75.2 | inactive
Cd1d2 (CD1d2 antigen) | 2 | 76.8 | 91.8 | inactive
Cd1d2 (CD1d2 antigen) | 3 | 70.4 | 60.8 | inactive
Serpini2 (serine (or cysteine) peptidase inhibitor, clade I, member 2) | 1 | 62.2 | 59.8 | inactive
Serpini2 (serine (or cysteine) peptidase inhibitor, clade I, member 2) | 2 | 77.7 | 83.2 | inactive
Serpini2 (serine (or cysteine) peptidase inhibitor, clade I, member 2) | 3 | 52.7 | 92.7 | inactive
Onecut2 (one cut domain, family member 2) | 1 | 71.6 | 78.8 | inactive
Onecut2 (one cut domain, family member 2) | 2 | 67.4 | 66.4 | inactive
Onecut2 (one cut domain, family member 2) | 3 | 117 | 89.1 | inactive
Il12rb2 (interleukin 12 receptor, beta 2) | 1 | 54.2 | 59.4 | inactive
Il12rb2 (interleukin 12 receptor, beta 2) | 2 | 83.8 | 73.8 | inactive
Il12rb2 (interleukin 12 receptor, beta 2) | 3 | 49.8 | 52.7 | inactive
Dsn1 (DSN1 homolog, MIS12 kinetochore complex component) | 1 | 95 | 111 | inactive
Dsn1 (DSN1 homolog, MIS12 kinetochore complex component) | 2 | 106 | 70.4 | inactive
Dsn1 (DSN1 homolog, MIS12 kinetochore complex component) | 3 | 69.1 | 82.7 | inactive
Hoxa2 (homeobox A2) | 1 | 88.9 | 105 | inactive
Hoxa2 (homeobox A2) | 2 | 93.1 | 116 | inactive
Hoxa2 (homeobox A2) | 3 | 51 | 63.1 | inactive
Pigb (phosphatidylinositol glycan anchor biosynthesis, class B) | 1 | 143 | 85.8 | active
Pigb (phosphatidylinositol glycan anchor biosynthesis, class B) | 2 | 160 | 124 | active
Pigb (phosphatidylinositol glycan anchor biosynthesis, class B) | 3 | 103 | 126 | inactive
Or5k15 (olfactory receptor family 5 subfamily J member 15) | 1 | 72.5 | 70 | inactive
Or5k15 (olfactory receptor family 5 subfamily J member 15) | 2 | 73 | 84.7 | inactive
Or5k15 (olfactory receptor family 5 subfamily J member 15) | 3 | 36.9 | 103 | inactive
Rnpepl1 (arginyl aminopeptidase (aminopeptidase B)-like 1) | 1 | 101 | 87.5 | inactive
Rnpepl1 (arginyl aminopeptidase (aminopeptidase B)-like 1) | 2 | 112 | 66.1 | inactive
Rnpepl1 (arginyl aminopeptidase (aminopeptidase B)-like 1) | 3 | 73.9 | 69.2 | inactive
Plin1 (perilipin 1) | 1 | 63.8 | 79.3 | inactive
Plin1 (perilipin 1) | 2 | 106 | 87.5 | inactive
Plin1 (perilipin 1) | 3 | 127 | 179 | active
Zfp65 (zinc finger protein 65) | 1 | 47 | 36.5 | inactive
Zfp65 (zinc finger protein 65) | 2 | 61.9 | 71.8 | inactive
Zfp65 (zinc finger protein 65) | 3 | 116 | 90.4 | inactive
